Laboratory results published in patent publication US4829051A, “N-substituted derivatives of 1-desaminovasopressin” (Vega Laboratories, Inc., priority 1984, dated 1989).
At least one peptide structure holds a part that was inferred or is arguable (an end, a ring closure or a residue). Some entries repeat one wording, which the source may state once for all of them. Where a SMILES comes first, the peptide text is derived from it. Bridges are numbered along the chain shown (N, C = ends). [ ]: non-standard residue; d: D form. Mpa = O=C(O)CCS

Tests used:
male Sprague-Dawley rats = experiment: Pressor assay in rats, calibrated against LVP or dLVP; format: in vivo, rat; conditions: for Peak Potency (pressor activity): 200 g male Sprague-Dawley rats, calibrated against LVP or dLVP; for Ratio of Half-Life of Compound to Standard (pressor response): half-lives compared with the standard at equi-peak-potent levels; for Pressor activity compared with tGLVP: summary of Table 3
experimental animals = conditions: cited from earlier work
[1] = in vivo; cited from earlier work
[2] = clinical; cited from earlier work
cats and dogs = conditions: cited from earlier work
rats = conditions: cited from earlier work
[3] = system: dogs, monkeys, rats, rabbits; conditions: in vivo; cited from earlier work
rabbits = conditions: cited from earlier work
[4] = single 1 mg i.v. dose; cited from earlier work
heparinized rats = experiment: Gastric hemostasis (peptic ulcer bleeding model) in heparinized rats; format: in vivo, rat; conditions: for Mean bleeding rate score: 2.5 microg/kg i.v., mean ± SD
Sprague-Dawley rats = experiment: Organ blood flow by distribution of i.v. injected 86Rb; format: in vivo, rat; conditions: i.v. 2-50 microg/kg; urethane-anesthetized rats; statistically significant
unanesthetized dogs = experiment: Organ blood flow by radioactively labelled glass microspheres after infusion; format: in vivo, dog
[5] = infusion 1.0 microg/kg min or half that, 10 and 30 min after end of infusion

SMILES: NCCCC[C@H](NC(=O)[C@@H]1CCCN1C(=O)[C@@H]1CSSCCC(=O)N[C@@H](Cc2ccc(O)cc2)C(=O)N[C@@H](Cc2ccccc2)C(=O)N[C@@H](CCC(N)=O)C(=O)N[C@@H](CC(N)=O)C(=O)N1)C(=O)NCC(N)=O [dLVP standard, 1-desamino-lysinevasopressin, reference compound]
- Peak Potency (pressor activity) (male Sprague-Dawley rats): 270 IU/mg
- Ratio of Half-Life of Compound to Standard (pressor response) (male Sprague-Dawley rats): 1.0

SMILES: NCC(=O)NCC(=O)NCCCC[C@H](NC(=O)[C@@H]1CCCN1C(=O)[C@@H]1CSSCCC(=O)N[C@@H](Cc2ccc(O)cc2)C(=O)N[C@@H](Cc2ccccc2)C(=O)N[C@@H](CCC(N)=O)C(=O)N[C@@H](CC(N)=O)C(=O)N1)C(=O)NCC(N)=O [Example VIII, 1-Desamino-[8-Lys-N^ε (Gly-Gly)]-Vasopressin]
- Peak Potency (pressor activity) (male Sprague-Dawley rats): 5.6 IU/mg
- Ratio of Half-Life of Compound to Standard (pressor response) (male Sprague-Dawley rats): 15-20
- Pressor activity compared with tGLVP (male Sprague-Dawley rats): prolonged pressor activity of higher potency compared to that of tGLVP

SMILES: NCCCC[C@H](NC(=O)[C@@H]1CCCN1C(=O)[C@@H]1CSSC[C@H](NC(=O)CNC(=O)CNC(=O)CN)C(=O)N[C@@H](Cc2ccc(O)cc2)C(=O)N[C@@H](Cc2ccccc2)C(=O)N[C@@H](CCC(N)=O)C(=O)N[C@@H](CC(N)=O)C(=O)N1)C(=O)NCC(N)=O [tGLVP, N^α -(glycyl-glycyl-glycyl)-8-lysine-vasopressin] (H-GGGCYFQNCPKG-NH2; disulfide 4-9)
- Peak Potency (pressor activity) (male Sprague-Dawley rats): 1.2 IU/mg
- Effect on blood flow to the uterus (experimental animals; animals): marked and prolonged vasoconstrictor effect lowering blood flow to the entire uterus
- Dose for an equipotent response amplitude (vasoconstriction) (experimental animals; same preparations as natural vasopressin hormones): 0.02 to 0.05 mg/kg
- Effective dose in gastric mucosal bleeding [1]: 0.02 to 0.05 mg/kg
- Outcome in uterine blood loss [2]: success
- Blood flow to the uterus and pancreas (cats and dogs): marked decreases in blood flow
- Blood flow to the entire gut, lower third of esophagus to rectum (rats): marked and prolonged decrease in blood flow
- Survival time after controlled hemorrhage [3]: significantly increased survival time
- Survival in experimental burns (rabbits): survival prolongation effect
- Excessive venous bleeding in the operative field [4]: dried up

SMILES: NCC(=O)NCCCC[C@H](NC(=O)[C@@H]1CCCN1C(=O)[C@@H]1CSSCCC(=O)N[C@@H](Cc2ccccc2)C(=O)N[C@@H](Cc2ccccc2)C(=O)N[C@@H](CCC(N)=O)C(=O)N[C@@H](CC(N)=O)C(=O)N1)C(=O)NCC(N)=O [Example I, 1-Desamino-[2-Phe, 8-Lys-N^ε (Gly)]-Vasopressin] ([Mpa]FFQNCPK(Gly)G-NH2; disulfide 1-6)
- Peak Potency (pressor activity) (male Sprague-Dawley rats): 1.9 IU/mg
- Ratio of Half-Life of Compound to Standard (pressor response) (male Sprague-Dawley rats): 12.5
- Pressor activity compared with tGLVP (male Sprague-Dawley rats): prolonged pressor activity of higher potency compared to that of tGLVP

SMILES: NCC(=O)NCC(=O)NCC(=O)NCCCC[C@H](NC(=O)[C@@H]1CCCN1C(=O)[C@@H]1CSSCCC(=O)N[C@@H](Cc2ccc(O)cc2)C(=O)N[C@@H](Cc2ccccc2)C(=O)N[C@@H](CCC(N)=O)C(=O)N[C@@H](CC(N)=O)C(=O)N1)C(=O)NCC(N)=O [Example II, 1-Desamino-[8-Lys-N^ε (Gly-Gly-Gly)]-Vasopressin]
- Peak Potency (pressor activity) (male Sprague-Dawley rats): 5.4 IU/mg
- Ratio of Half-Life of Compound to Standard (pressor response) (male Sprague-Dawley rats): 37-53
- Pressor activity compared with tGLVP (male Sprague-Dawley rats): prolonged pressor activity of higher potency compared to that of tGLVP
- Bleeding compared with controls (heparinized rats; 2.5 ug/kg i.v. pretreatment, bleeding followed for 45 min): decrease in bleeding compared with controls
- Mean bleeding rate score (heparinized rats; 6-10 min after dosing, score 0 = no bleeding to 4 = heavy bleeding): 1.24 ± 0.62
- Mean bleeding rate score (heparinized rats; 11-15 min after dosing, score 0-4): 1.04 ± 0.52
- Mean bleeding rate score (heparinized rats; 16-20 min after dosing, score 0-4): 1.29 ± 0.60
- Mean bleeding rate score (heparinized rats; 21-25 min after dosing, score 0-4): 1.70 ± 0.82
- Mean bleeding rate score (heparinized rats; 26-30 min after dosing, score 0-4): 1.75 ± 0.85
- Mean bleeding rate score (heparinized rats; 31-35 min after dosing, score 0-4): 1.81 ± 1.00
- Mean bleeding rate score (heparinized rats; 36-40 min after dosing, score 0-4): 1.43 ± 0.4
- Blood flow to uterus and pancreas (Sprague-Dawley rats): marked changes in the same direction in the same organs
- Potency of hemodynamic actions relative to tGLVP (unanesthetized dogs; compared with tGLVP): about 5 times
- Prolongation of action relative to tGLVP (unanesthetized dogs; compared with tGLVP): ~4 times
- Blood flow to liver and brain (unanesthetized dogs; [5]): moderate increases
- Blood flow to the skin (unanesthetized dogs; [5]): very marked and prolonged decreases
- Decrease in blood flow to esophagus and stomach (all parts) (unanesthetized dogs; [5]): 70-80%
